# Source: patent US5548062A (Asahi Glass Company Ltd., priority 1990, dated 1996)
# Strings that start with PEPTIDE1 are HELM notation: dots part the residues, brackets hold end groups and non-standard residues. The same purity stands for every peptide and may come from a single statement.
# Experiment: peptide synthesis
# Settings: whole synthesis, reversed-phase HPLC (μBondasphere C18 column, Waters)
substance,measurement,value
PEPTIDE1{A.E.D.G.D.A.K.T.D.Q.A.E.K.A.E.G.A.G.D.A.K}$$$$V2.0,final HPLC purity,at least 99%
